Values are animals surviving of animals treated; these mice carried no tumour. Survivors were counted at the toxicity check, usually on the fifth day, unless a day is given; later deaths do not show. Schedule codes are those of the source, taken here to give the interval after Q, in days (D) or hours (H), and the number of doses after X.

This note sets out measurements from PubChem BioAssay AID188 (DTP/NCI, 2004).

The assay relates to CD2F1 mice, nontumored, toxicity/survival. The experiment in a line: NCI In Vivo Anticancer Drug Screen. Data for tumor model Nontumored Animals (Toxicity Test) in CD2F1 (CDF1) mice.
Setting [1] is: dose: 100.0 mg/kg/injection, schedule: Q01DX001 (ip), vehicle: other.

On to `CO[C@@]12[C@H](COC(N)=O)C3=C(C(=O)C(C)=C(N)C3=O)N1C[C@@H]1N[C@@H]12`, for which the survivor count is, setting by setting: (dose: 0.13 mg/kg/injection, schedule: Q01DX009 (ip), vehicle: saline) 5 of 5; (dose: 0.22 mg/kg/injection, schedule: Q01DX009 (ip), vehicle: saline) 5 of 5; (dose: 0.25 mg/kg/injection, schedule: Q01DX009 (ip), vehicle: water) 4 of 4; (dose: 0.36 mg/kg/injection, schedule: Q01DX009 (ip), vehicle: saline) 5 of 5; (dose: 0.36 mg/kg/injection, schedule: Q01DX009 (ip), vehicle: water) 4 of 4; (dose: 0.38 mg/kg/injection, schedule: Q01DX009 (ip), vehicle: saline) 4 of 4. The survivor count (dose: 0.5 mg/kg/injection, schedule: Q01DX009 (ip), vehicle: water) is 4 of 4; the survivor count (dose: 0.6 mg/kg/injection, schedule: Q01DX009 (ip), vehicle: saline) is on record as 5 of 5; the survivor count (dose: 0.6 mg/kg/injection, schedule: Q01DX009 (ip), vehicle: water) is given as 4 of 4; the survivor count (dose: 0.75 mg/kg/injection, schedule: Q01DX009 (ip), vehicle: saline) is reported as 4 of 4; the survivor count (dose: 1.0 mg/kg/injection, schedule: Q01DX009 (ip), vehicle: saline) was 5 of 5; the survivor count (dose: 1.0 mg/kg/injection, schedule: Q01DX009 (ip), vehicle: water) is 4 of 4. Further, the survivor count runs as follows: (dose: 1.5 mg/kg/injection, schedule: Q01DX009 (ip), vehicle: saline) 4 of 4; (dose: 1.67 mg/kg/injection, schedule: Q01DX009 (ip), vehicle: saline) 5 of 5; (dose: 1.67 mg/kg/injection, schedule: Q01DX009 (ip), vehicle: water) 4 of 4; (dose: 1.8 mg/kg/injection, schedule: Q01DX001 (ip), vehicle: saline) 4 of 4; (dose: 1.8 mg/kg/injection, schedule: Q01DX001 (ip), vehicle: water) 4 of 4; (dose: 1.8 mg/kg/injection, schedule: Q04DX003 (ip), vehicle: water) 5 of 5. Also, the survivor count (dose: 2.0 mg/kg/injection, schedule: Q01DX009 (ip), vehicle: water) is listed as 4 of 4; the survivor count (dose: 3.0 mg/kg/injection, schedule: Q01DX001 (ip), vehicle: saline) is 4 of 4; the survivor count (dose: 3.0 mg/kg/injection, schedule: Q01DX001 (ip), vehicle: water) was 4 of 4; the survivor count (dose: 3.0 mg/kg/injection, schedule: Q01DX009 (ip), vehicle: saline) is reported as 4 of 4; the survivor count (dose: 3.0 mg/kg/injection, schedule: Q04DX003 (ip), vehicle: water) is 5 of 5; the survivor count (dose: 5.0 mg/kg/injection, schedule: Q01DX001 (ip), vehicle: saline) is on record as 4 of 4. Moreover, the survivor count runs as follows: (dose: 5.0 mg/kg/injection, schedule: Q01DX001 (ip), vehicle: water) 4 of 4; (dose: 5.0 mg/kg/injection, schedule: Q04DX003 (ip), vehicle: water) 5 of 5; (dose: 8.3 mg/kg/injection, schedule: Q01DX001 (ip), vehicle: saline) 4 of 4; (dose: 8.3 mg/kg/injection, schedule: Q01DX001 (ip), vehicle: water) 4 of 4; (dose: 8.3 mg/kg/injection, schedule: Q04DX003 (ip), vehicle: water) 5 of 5.
As for `CC1C=NNC1=O` (stereo not drawn), the survivor count is listed as 8 of 8 (dose: 8.0 mg/kg/injection, schedule: Q03HX016 (ip), vehicle: saline); 8 of 8 (dose: 8.0 mg/kg/injection, schedule: Q03HX024 (ip), vehicle: saline); 8 of 8 (dose: 16.0 mg/kg/injection, schedule: Q03HX016 (ip), vehicle: saline); 8 of 8 (dose: 16.0 mg/kg/injection, schedule: Q03HX024 (ip), vehicle: saline); 8 of 8 (dose: 32.0 mg/kg/injection, schedule: Q03HX016 (ip), vehicle: saline); 8 of 8 (dose: 32.0 mg/kg/injection, schedule: Q03HX024 (ip), vehicle: saline). The survivor count is on record as 8 of 8 (dose: 64.0 mg/kg/injection, schedule: Q01DX009 (ip), vehicle: saline); 8 of 8 (dose: 64.0 mg/kg/injection, schedule: Q03HX016 (ip), vehicle: saline); 8 of 8 (dose: 64.0 mg/kg/injection, schedule: Q03HX024 (ip), vehicle: saline); 8 of 8 (dose: 64.0 mg/kg/injection, schedule: Q04DX003 (ip), vehicle: saline); 8 of 8 (dose: 64.0 mg/kg/injection, schedule: Q08DX002 (ip), vehicle: saline); 8 of 8 (dose: 128.0 mg/kg/injection, schedule: Q01DX009 (ip), vehicle: saline). Besides, the survivor count was 8 of 8 (dose: 128.0 mg/kg/injection, schedule: Q04DX003 (ip), vehicle: saline); 8 of 8 (dose: 128.0 mg/kg/injection, schedule: Q08DX002 (ip), vehicle: saline); 8 of 8 (dose: 256.0 mg/kg/injection, schedule: Q01DX009 (ip), vehicle: saline); 8 of 8 (dose: 256.0 mg/kg/injection, schedule: Q04DX003 (ip), vehicle: saline); 8 of 8 (dose: 256.0 mg/kg/injection, schedule: Q08DX002 (ip), vehicle: saline); 8 of 8 (dose: 512.0 mg/kg/injection, schedule: Q01DX009 (ip), vehicle: saline). In addition, the survivor count by setting is: (dose: 512.0 mg/kg/injection, schedule: Q04DX003 (ip), vehicle: saline) 8 of 8; (dose: 512.0 mg/kg/injection, schedule: Q08DX002 (ip), vehicle: saline) 8 of 8.
Consider `COc1ccc(-c2nc3c(N)nc(N)nc3nc2N)cc1OC`, for which the survivor count by setting is: (dose: 1.0 mg/kg/injection, schedule: Q01DX001 (ip), vehicle: water) 2 of 2; (dose: 10.0 mg/kg/injection, schedule: Q01DX001 (ip), vehicle: water) 2 of 2; (dose: 100.0 mg/kg/injection, schedule: Q01DX001 (ip), vehicle: water) 2 of 2.
Regarding `CCN(CC)c1ccc(C(C#N)(c2ccc(N(CC)Cc3cccc(S(=O)(=O)O)c3)cc2)c2ccc(N(CC)Cc3cccc(S(=O)(=O)O)c3)cc2)cc1`, the survivor count by setting is: (dose: 25.0 mg/kg/injection, schedule: Q01DX005 (ip), vehicle: saline with Tween-80) 3 of 3; (dose: 50.0 mg/kg/injection, schedule: Q01DX001 (ip), vehicle: other) 3 of 3; (dose: 50.0 mg/kg/injection, schedule: Q01DX005 (ip), vehicle: saline with Tween-80) 3 of 3; under setting [1], 3 of 3; (dose: 100.0 mg/kg/injection, schedule: Q01DX005 (ip), vehicle: saline with Tween-80) 3 of 3; (dose: 200.0 mg/kg/injection, schedule: Q01DX001 (ip), vehicle: other) 3 of 3. Besides, the survivor count by setting is: (dose: 200.0 mg/kg/injection, schedule: Q01DX005 (ip), vehicle: saline with Tween-80) 3 of 3; (dose: 400.0 mg/kg/injection, schedule: Q01DX001 (ip), vehicle: other) 2 of 3.
On to `CC(=O)Nc1nc(Br)c2ccccc2c1-c1ccc(N(CCOS(=O)(=O)c2ccc(C)cc2)CCOS(=O)(=O)c2ccc(C)cc2)cc1`, for which the survivor count (dose: 1.0 mg/kg/injection, schedule: Q01DX001 (ip), vehicle: other) was 2 of 2; the survivor count (dose: 10.0 mg/kg/injection, schedule: Q01DX001 (ip), vehicle: other) was 2 of 2; the survivor count under setting [1] is listed as 2 of 2.
